Results reported in PMC1868777.

Molecular target: T1, dmSpc25R (bait of an affinity purification) (Drosophila melanogaster) (UniProt Q9V3V7)
T1 sequence: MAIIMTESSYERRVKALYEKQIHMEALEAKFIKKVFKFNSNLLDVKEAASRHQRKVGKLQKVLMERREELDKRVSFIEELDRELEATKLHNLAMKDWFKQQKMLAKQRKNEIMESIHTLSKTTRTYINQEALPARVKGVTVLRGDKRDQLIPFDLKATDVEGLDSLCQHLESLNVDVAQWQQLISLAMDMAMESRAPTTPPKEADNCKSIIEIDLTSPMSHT
Test: affinity purification with mass spectrometry; Protein A- or TAP-tagged bait stably expressed in D-mel cells; whole cell extracts of asynchronous cultures; single step on Dynabeads with rabbit IgG, 2-4 hours; buffer A (75 mM HEPES pH7.5, 150 mM KCl, 1.5 mM EGTA, 1.5 mM MgCl2, 7.5% glycerol, 0.1% NP40, Benzonase), six washes; elution with 1 M NH4OH; SDS-PAGE bands analysed by LC-MS/MS (MASCOT)

EB1
binding: binds

No constants are given. Whether binding was seen depends on the method and setting. Binding seen in cells or lysates may run through a third protein. A yes stands for co-enrichment or nearness to the bait. Other partners may have been found.
